Consider six molecules from article doi:10.1101/2023.05.20.541568.

Protein sequences, listed by entry. Tags and fused reporters are not part of them. Residues count along the entry.
UniProt Q9LVE2: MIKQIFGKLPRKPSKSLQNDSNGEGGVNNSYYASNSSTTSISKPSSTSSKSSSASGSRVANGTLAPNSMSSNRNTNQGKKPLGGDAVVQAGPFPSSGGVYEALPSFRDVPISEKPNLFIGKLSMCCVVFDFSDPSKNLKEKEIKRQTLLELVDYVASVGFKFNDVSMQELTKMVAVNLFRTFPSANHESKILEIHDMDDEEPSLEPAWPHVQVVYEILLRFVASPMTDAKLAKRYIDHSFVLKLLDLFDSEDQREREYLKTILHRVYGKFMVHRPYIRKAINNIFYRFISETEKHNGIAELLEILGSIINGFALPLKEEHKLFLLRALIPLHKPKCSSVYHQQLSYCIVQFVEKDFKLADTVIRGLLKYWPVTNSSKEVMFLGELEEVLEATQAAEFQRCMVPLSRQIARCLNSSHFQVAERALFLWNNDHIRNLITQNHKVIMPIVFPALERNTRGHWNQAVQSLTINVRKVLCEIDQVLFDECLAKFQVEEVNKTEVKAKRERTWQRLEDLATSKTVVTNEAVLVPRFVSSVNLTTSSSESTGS
UniProt Q9LKA3, residues 23-341: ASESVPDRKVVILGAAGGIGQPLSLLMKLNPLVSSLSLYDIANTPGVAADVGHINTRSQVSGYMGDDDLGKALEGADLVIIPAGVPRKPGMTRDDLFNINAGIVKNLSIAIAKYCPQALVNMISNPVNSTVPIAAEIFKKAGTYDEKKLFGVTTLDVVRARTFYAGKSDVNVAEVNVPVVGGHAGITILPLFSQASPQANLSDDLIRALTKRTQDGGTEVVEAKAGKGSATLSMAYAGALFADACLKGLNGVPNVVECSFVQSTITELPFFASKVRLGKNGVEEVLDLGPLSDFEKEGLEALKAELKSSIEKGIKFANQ
UniProt P93033, residues 29-492: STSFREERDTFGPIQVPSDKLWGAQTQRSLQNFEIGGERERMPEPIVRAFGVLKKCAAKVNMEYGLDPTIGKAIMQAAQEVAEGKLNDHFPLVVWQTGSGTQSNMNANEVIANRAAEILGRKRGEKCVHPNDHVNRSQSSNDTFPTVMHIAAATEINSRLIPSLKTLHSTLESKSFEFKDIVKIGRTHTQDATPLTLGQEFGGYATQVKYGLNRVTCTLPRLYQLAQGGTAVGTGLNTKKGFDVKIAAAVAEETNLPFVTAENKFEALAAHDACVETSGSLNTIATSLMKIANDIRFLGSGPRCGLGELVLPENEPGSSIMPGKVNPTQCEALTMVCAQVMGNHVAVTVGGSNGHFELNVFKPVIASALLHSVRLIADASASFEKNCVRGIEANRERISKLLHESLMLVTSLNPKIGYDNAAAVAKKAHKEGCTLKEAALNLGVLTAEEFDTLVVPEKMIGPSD

Read-outs that look alike come from different tables or passages of the source. These are yes or no findings as the source states them, for the method shown. Binding seen in cells or lysates may run through a third protein. Some entries that bind do so weakly or less than the wild type.

Holding throughout (assay): split reporter
Assay [1] deals with PP2A regulatory subunit (B’ζ) (Arabidopsis thaliana) (UniProt Q9LVE2).
Assay [2] shares this target. The source holds these as a separate data set.
For assay [3] the target is unchanged. The source holds these as a separate data set.
The target is the same in assay [4]. This is another data set of the same source.

On to “Citrate synthase (CSY5) (from UniProt Q9M1D3 26-464) (enzyme)”, for which the binding result in assay [1] is “no binding”.

In the case of “Mitochondrial malate dehydrogenase (mMDH2) (from UniProt Q9LKA3 23-341) (enzyme)”, in assay [1], the binding result is given as “binds”.

With “Fumarase (FUM1) (from UniProt P93033 29-492) (enzyme)”, the binding result in assay [1] and in assay [2] was “no binding” throughout.

B1: Aconitase (ACO3) (enzyme, UniProt Q9SIB9 79-990)
chain: VSPVLDRLQRTFSSMASEHPFKGIFTTLPKPGGGEFGKFYSLPALNDPRVDKLPYSIRILLESAIRNCDNFQVTKEDVEKIIDWEKTSPKQVEIPFKPARVLLQDFTGVPAVVDLACMRDAMNKLGSDSNKINPLVPVDLVIDHSVQVDVARSENAVQANMELEFQRNKERFAFLKWGSTAFQNMLVVPPGSGIVHQVNLEYLGRVVFNTKGLLYPDSVVGTDSHTTMIDGLGVAGWGVGGIEAEATMLGQPMSMVLPGVVGFKLAGKMRNGVTATDLVLTVTQMLRKHGVVGKFVEFYGNGMSGLSLADRATIANMSPEYGATMGFFPVDHVTLQYLKLTGRSDETVAMIEAYLRANNMFVDYNEPQQDRVYSSYLELNLDDVEPCISGPKRPHDRVTLKEMKADWHSCLDSKVGFKGFAIPKEAQEKVVNFSFDGQPAELKHGSVVIAAITSCTNTSNPSVMLGAGLVAKKACDLGLQVKPWIKTSLAPGSGVVTKYLLKSGLQEYLNEQGFNIVGYGCTTCIGNSGEINESVGAAITENDIVAAAVLSGNRNFEGRVHPLTRANYLASPPLVVAYALAGTVNIDFETEPIGKGKNGKDVFLRDIWPTTEEIAEVVQSSVLPDMFRATYESITKGNPMWNKLSVPENTLYSWDPNSTYIHEPPYFKDMTMDPPGPHNVKDAYCLLNFGDSITTDHISPAGNIQKDSPAAKFLMERGVDRKDFNSYGSRRGNDEIMARGTFANIRIVNKLMNGEVGPKTVHIPSGEKLSVFDAAMRYKSSGEDTIILAGAEYGSGSSRDWAAKGPMLQGVKAVIAKSFERIHRSNLVGMGIIPLCFKSGEDADTLGLTGHERYTIHLPTDISEIRPGQDVTVTTDNGKSFTCTVRFDTEVELAYFNHGGILPYVIRNLSKQ
Regarding B1, in assay [3], the binding entry is “binds”.

B2: Citrate synthase (CSY5) (enzyme, UniProt Q9M1D3 26-464)
chain: SVRWLHSSELDLKSQMQEIIPEQQDRLKKLKSEQGKVPVGNITVDMVLGGMRGMTGLLWETSLLDADEGIRFRGMSIPECQKILPSAESGEEPLPESLLWLLLTGKVPTKEQANALSTELAHRAAVPAIDALPSTAHPMTQFASGVMALQVQSEFQKAYEQGDISKSKYWEPTFEDALNLIARVPVVASYVYRRMYKDGSIIPLDDSLDYGANFSHMLGFDSPQMKELMRLYVTIHSDHEGGNVSAHAGHLVGSALSDPYLSFAAALNGLAGPLHGLANQEVLLWIKLVVEECGESISKEQLKDYVWKTLNSGKVVPGYGHGVLRKTDPRYICQREFALKHLPDDPLFQLVSKLYEVVPPILTELGKVKNPWPNVDAHSGVLLNYYGLTEARYYTVLFGVSRSLGICSQLIWDRALGLPLERPKSVNMDWLDNFTRLNR
Consider B2, for which, in assay [3], the binding entry is recorded as “no binding”.

B3: Succinate dehydrogenase (SDH2-1) (enzyme, UniProt Q8LBZ7 29-279)
chain: TSTGAEAETKASSGGGRGSNLKTFQIYRWNPDNPGKPELQNYQIDLKDCGPMVLDALIKIKNEMDPSLTFRRSCREGICGSCAMNIDGCNGLACLTKIQDEASETTITPLPHMFVIKDLVVDMTNFYNQYKSIEPWLKRKTPASVPAKEILQSKKDRAKLDGMYECILCACCSTSCPSYWWNPESYLGPAALLHANRWISDSRDEYTKERLEAIDDEFKLYRCHTILNCARACPKGLNPGKQITHIKQLQR
As for B3, the binding entry in assay [4] and in assay [3] was “no binding” throughout.
